# Measurements reported in PubChem BioAssay AID652259 (Drosophila RNAi Screening Center, 2013)
# Screen: 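Genome-wide hunt for genes that control Wingless pathway activity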 (primary screen)
# System: Drosophila clone 8 imaginal disc epithelial cells
# Knock-down reagent: long dsRNA against Drosophila genes
# Conditions: pathway stimulated by co-transfected Wingless expression plasmid
# Measurement: 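Dual luciferase reads per well after Wingless plasmid stimulation: reporter firefly light and Renilla control light; activity is firefly divided by Renilla, a ratio not deposited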
# Reading the numbers: firefly reporter light: higher = more Wg reporter light, before normalisation; Renilla control light: higher = more transfected or surviving cells
# Active means: 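a knock-down is a candidate when at least two out of four statistical tests show it departing from its plate mean; one test alone signals a weak candidate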
# Meaning of the calls: active = candidate regulator (raises or lowers reporter); inactive = not a candidate
# The screen tested about 22,000 reagents; shown is an unselected part of those that have a named target and a result. Over the whole deposit, 233 (1.1%) are marked active. 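Light values are raw, unnormalised plate reads; the ratio scores behind the reporter calls were not deposited.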 Reagents against one gene are numbered here. No sequences are given here. Not given: the amount of reagent, the time to read-out, the dose of the treatment.
gene knocked down,dsRNA no.,"firefly reporter light, replicate 1","firefly reporter light, replicate 2","Renilla control light, replicate 1","Renilla control light, replicate 2",activity call
CG16743,1,2653,8689,765,2561,inactive
CG9570,1,29291,,1867,,inactive
CG32163,1,5076,,1910,,inactive
CG32163,2,7.66e5,7.40e5,3.04e5,3.52e5,inactive
CG14770,1,29024,,20762,,inactive
CG31784,1,18918,,6930,,inactive
CG33107,1,2.99e5,3.73e5,1.26e5,1.54e5,inactive
CG4066,1,12715,,4918,,inactive
RfC3 (Replication factor C subunit 3),1,3332,5146,1098,2293,inactive
Hmt4-20 (Histone methyltransferase 4-20),1,1344,4004,453,902,inactive
sktl (skittles),1,7676,,1853,,inactive
CG33060,1,7355,,2786,,inactive
Arl6 (ADP ribosylation factor-like 6),1,9096,,3104,,inactive
CG5921,1,3291,,1443,,inactive
CG5921,2,16904,,8805,,inactive
Shawl (Shaw-like),1,2133,5411,1258,3155,inactive
Shawl (Shaw-like),2,5031,7398,1500,4090,inactive
Gmppb (GDP-mannose pyrophosphorylase B),1,4960,,1176,,inactive
CG5928,1,23392,,12731,,inactive
Ercc1,1,14487,,3815,,inactive
CG17376,1,2.33e5,2.13e5,1.16e5,90300,inactive
Tfb4 (Transcription factor B4),1,5676,10515,944,2343,inactive
CG12003,1,5787,,2864,,inactive
Best2 (Bestrophin 2),1,1954,7613,853,3236,inactive
CG42758,1,5799,,2919,,inactive

Sorted by “Renilla control light, replicate 1” (low to high): 5 of the entries above.
gene knocked down,dsRNA no.,"firefly reporter light, replicate 1","firefly reporter light, replicate 2","Renilla control light, replicate 1","Renilla control light, replicate 2",activity call
Hmt4-20 (Histone methyltransferase 4-20),1,1344,4004,453,902,inactive
RfC3 (Replication factor C subunit 3),1,3332,5146,1098,2293,inactive
sktl (skittles),1,7676,,1853,,inactive
CG33060,1,7355,,2786,,inactive
CG4066,1,12715,,4918,,inactive

The list goes on:
gene knocked down,dsRNA no.,"firefly reporter light, replicate 1","firefly reporter light, replicate 2","Renilla control light, replicate 1","Renilla control light, replicate 2",activity call
HPS4 (Hermansky-Pudlak Syndrome 4),1,3901,,2406,,inactive
unc79 (uncoordinated 79),1,3100,5723,1639,2553,inactive
Mapmodulin,1,10983,,2010,,inactive
Polr3D (RNA polymerase III subunit D),1,3434,,1197,,inactive
TSG101 (Tumor susceptibility gene 101),1,14330,,3818,,inactive
CG1504,1,14528,,811,,inactive
angel,1,19013,,5904,,inactive
angel,2,5.32e5,5.53e5,3.18e5,2.59e5,inactive
eIF3i (eukaryotic translation initiation factor 3 subunit i),1,9267,,3284,,inactive
Fmr1 (Fragile X messenger ribonucleoprotein 1),1,18625,,4136,,inactive
Rim (Rab3 interacting molecule),1,18209,,4246,,inactive
Rim (Rab3 interacting molecule),2,9554,,704,,inactive
Rim (Rab3 interacting molecule),3,2697,6308,1399,1851,inactive
Rim (Rab3 interacting molecule),4,23203,,5024,,inactive
Rim (Rab3 interacting molecule),5,5.07e5,5.33e5,1.43e5,1.25e5,inactive
Nepl13 (Neprilysin-like 13),1,16329,,14700,,inactive
dec (defective chorion),1,32290,,17280,,inactive
dec (defective chorion),2,2.76e5,3.31e5,1.76e5,1.41e5,inactive
CG33922,1,18402,,8715,,inactive
CG10257,1,5616,,2088,,inactive
Ir56d (Ionotropic receptor 56d),1,6528,,2250,,inactive
CG13360,1,3665,13011,1895,4322,inactive
CG14053,1,14473,,10483,,inactive
sstn (stepping stone),1,6376,,3101,,inactive
